Experimental findings from paper PMC5467912, “Asymmetric regulation of quorum-sensing receptors drives autoinducer-specific gene expression programs in Vibrio cholerae” (PLoS Genetics, 2017) are described below.

For assay [1], the system named is QS-controlled luxCDABE operon. It counts as cell-based.
In assay [2] the test system is VCA0107-GFP. Briefly: Qrr4 regulation of VCA0107-GFP translational fusion, anhydrous tetracycline-inducible qrr4 (S4 Fig). It counts as cell-based, E. coli. From the text:
(§1) We examined whether Qrr regulation of CqsS is direct or indirect using a CqsS-mKATE2 translational fusion in E. coli expressing inducible qrr4. We reasoned that, if CqsS production is controlled by Qrr4, repression of CqsS-mKATE2 should occur when Qrr4 is induced. We verified that our system works by showing that inducible Qrr4 is capable of repressing a previously-identified direct target, VCA0107-GFP [24]. However, no repression of CqsS-mKATE2 occurred following induction of Qrr4 (S4 Fig).
(§2) To assay qrr4 regulation of cqsS, the relative fluorescence of translational fusions (VCA0107B-GFP and CqsS-mKATE2) was measured in E. coli BWR1. E. coli carrying one of these plasmids also contained either an empty plasmid (pZA31) or pZA31 carrying anhydrous tetracycline-inducible qrr4. Qrr4-mediated repression of CqsS-mKATE2 was assessed. VCA0107-GFP is a known Qrr4-repressed target and was used as a positive control to show the system was functional. Overnight cultures were diluted 1:50 into fresh medium and aliquotted in triplicate into 96 well plates. […] OD600 and fluorescence were assessed using an Envision 2103 Multilabel Reader (Perkin Elmer).
(§3) Supplementary file pgen.1006826.s008.tiff: S4 Fig Qrr4 indirectly regulates cqsS. Fluorescence from plasmid-encoded VCA0107-GFP (circles) and CqsS-mKATE2 (squares) was measured in E. coli. Either an empty vector (pZA31-lucNB, black) or pZA31-lucNB carrying tetracycline-inducible qrr4 (pYS245, red) was present in each strain. VCA0107 encodes a type VI secretion system component that is regulated by Qrr4. Data represent two experiments conducted in triplicate. Error bars represent standard errors of the mean. (TIFF) Click here for additional data file.

Assay [3] concerns CqsS-mKATE2. Briefly: Qrr4 regulation of CqsS-mKATE2 translational fusion, anhydrous tetracycline-inducible qrr4 (S4 Fig). It is filed as cell-based, E. coli.
Source text: as §1, §2, §3

Structures are written as SMILES. Where “and” joins values, the source holds several entries; their conditions need not be identical. Equal entries are not always repeated. Where two headings read alike, the source gives them in different places. This continues a long series; more values of the same kind are listed elsewhere.

In the case of `CCCCCCCCCC(=O)[C@@H](O)CC` [CAI-1, (S)-3-hydroxytridecan-4-one], the Light production is recorded as 3246037000 RLU in assay [1] (LuxS-CqsA- +CAI-1 5 μM, OD600 1.451); 39158390000 RLU in assay [1] (LuxS-CqsA- +CAI-1 5 μM, OD600 1.711); 53101740000 RLU in assay [1] (LuxS-CqsA- +CAI-1 5 μM, OD600 2.015); 108432 RLU in assay [1] (LuxS-CqsA-, AI-2 1 μM, CAI-1 5 μM, OD600 0.005).

On to `Cc1c2c(c(O)c3c(O)cccc13)C(=O)[C@]1(O)C(=O)C(C(N)=O)=C(O)[C@@H](N(C)C)[C@@H]1C2` [aTc], for which the “Relative reporter signal, single replicates” value (“Relative reporter signal” for short) is 0.9613 and 1.012 and 1.026 and 0.9977 and 1.0006 and 1.002 in assay [2] (pVC107 Qrr4, aTc 0.0976562 ng/ml); 1.0024 and 0.9188 and 0.8807 and 1.002 and 1.013 and 1.06 in assay [2] (pVC107 Qrr4, aTc 0.195312 ng/ml); 1.03 and 1.023 and 1.039 and 1.065 and 1.021 and 1.045 in assay [2] (pVC107 Qrr4, aTc 0.390625 ng/ml); 0.9926 and 1.068 and 1.059 and 1.057 and 1.043 and 1.106 in assay [2] (pVC107 Qrr4, aTc 0.78125 ng/ml); 0.9758 and 1 and 1.022 and 0.9773 and 1.005 and 1.019 in assay [2] (pVC107 vector, aTc 0.0976562 ng/ml); 1.4128 and 0.8809 and 0.9699 and 1.012 and 1.135 and 1.031 in assay [2] (pVC107 vector, aTc 0.195312 ng/ml). Further, the “Relative reporter signal” value is 1.5695 and 0.9939 and 0.9892 and 1.006 and 1.039 and 1.108 in assay [2] (pVC107 vector, aTc 0.390625 ng/ml); 1.141 and 1.081 in assay [2] (pVC107 vector, aTc 0.78125 ng/ml); 1.002 and 0.9544 and 1.043 and 0.9944 and 1.027 and 0.9789 and 0.936 and 0.9952 and 1.069 in assay [3] (pCqsS Qrr4, aTc 0.0976562 ng/ml); 1.086 and 1.038 and 0.9407 and 1.155 and 1.153 and 1.027 and 0.9251 and 0.879 and 0.9441 in assay [3] (pCqsS Qrr4, aTc 0.195312 ng/ml); 1.032 and 1.045 and 1.22 and 1.012 and 1.144 and 1.091 and 0.946 and 0.9769 and 0.9113 in assay [3] (pCqsS Qrr4, aTc 0.390625 ng/ml); 1.064 and 1.133 and 1.188 and 1.111 and 1.121 and 0.9345 and 0.8987 and 1.005 and 0.9315 in assay [3] (pCqsS Qrr4, aTc 0.78125 ng/ml). Moreover, the “Relative reporter signal” value is 1.213 and 1.0656 and 1.1995 and 0.9438 and 1.051 and 0.9457 and 1.024 and 1.087 and 1.0937 in assay [3] (pCqsS Qrr4, aTc 1.5625 ng/ml); 1.02 and 0.9773 and 1.076 and 1.059 and 1.1 in assay [3] (pCqsS Qrr4, aTc 3.125 ng/ml); 0.9752 and 1.006 and 1.018 and 1.013 and 0.9989 and 0.988 in assay [3] (pCqsS vector, aTc 0.0976562 ng/ml); 0.9701 and 1.016 and 1.12 and 0.9675 and 0.9215 and 0.852 in assay [3] (pCqsS vector, aTc 0.195312 ng/ml); 1.111 and 1.086 and 1.064 and 1.002 and 0.9378 and 0.9418 in assay [3] (pCqsS vector, aTc 0.390625 ng/ml); 0.9001 and 0.9821 and 1.036 and 0.9415 and 0.9034 and 0.902 in assay [3] (pCqsS vector, aTc 0.78125 ng/ml). The “Relative reporter signal” value in assay [3] (pCqsS vector, aTc 1.5625 ng/ml) is 1.062 and 0.9934 and 1.045 and 1.019 and 0.9848 and 0.9027.
